Source: article PMC10887741
No constants are given. Whether binding was seen depends on the method and setting. For some of these results: In cells and extracts the contact can be indirect. Some results given as binding are weak or reduced against the parent protein; the word gives no strength. For some of these results: Tags and fused reporters may be left off the sequences shown.

By UniProt entry, the sequences of proteins in these tests, tags left out.
UniProt Q8TCW9: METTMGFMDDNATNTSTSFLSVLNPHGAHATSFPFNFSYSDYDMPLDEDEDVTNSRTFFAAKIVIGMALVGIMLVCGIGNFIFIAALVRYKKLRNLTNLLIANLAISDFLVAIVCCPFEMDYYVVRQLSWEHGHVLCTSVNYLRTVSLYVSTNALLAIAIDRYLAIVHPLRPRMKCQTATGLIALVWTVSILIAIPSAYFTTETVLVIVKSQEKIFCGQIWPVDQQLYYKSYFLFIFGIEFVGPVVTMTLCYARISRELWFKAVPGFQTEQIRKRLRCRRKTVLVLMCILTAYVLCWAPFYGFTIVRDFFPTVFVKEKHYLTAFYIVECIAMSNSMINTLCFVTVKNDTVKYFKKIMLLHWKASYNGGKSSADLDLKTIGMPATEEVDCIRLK
UniProt Q8NFJ6: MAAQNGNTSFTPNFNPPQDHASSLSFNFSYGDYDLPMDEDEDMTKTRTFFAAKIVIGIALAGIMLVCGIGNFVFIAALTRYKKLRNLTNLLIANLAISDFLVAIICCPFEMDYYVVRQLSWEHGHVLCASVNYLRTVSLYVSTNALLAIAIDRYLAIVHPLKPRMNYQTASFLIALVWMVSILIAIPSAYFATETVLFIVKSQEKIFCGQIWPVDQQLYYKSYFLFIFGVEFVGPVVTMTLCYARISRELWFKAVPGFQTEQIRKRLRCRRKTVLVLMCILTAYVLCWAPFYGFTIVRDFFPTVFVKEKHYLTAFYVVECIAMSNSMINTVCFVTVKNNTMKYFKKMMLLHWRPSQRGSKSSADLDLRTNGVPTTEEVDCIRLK
UniProt P32121: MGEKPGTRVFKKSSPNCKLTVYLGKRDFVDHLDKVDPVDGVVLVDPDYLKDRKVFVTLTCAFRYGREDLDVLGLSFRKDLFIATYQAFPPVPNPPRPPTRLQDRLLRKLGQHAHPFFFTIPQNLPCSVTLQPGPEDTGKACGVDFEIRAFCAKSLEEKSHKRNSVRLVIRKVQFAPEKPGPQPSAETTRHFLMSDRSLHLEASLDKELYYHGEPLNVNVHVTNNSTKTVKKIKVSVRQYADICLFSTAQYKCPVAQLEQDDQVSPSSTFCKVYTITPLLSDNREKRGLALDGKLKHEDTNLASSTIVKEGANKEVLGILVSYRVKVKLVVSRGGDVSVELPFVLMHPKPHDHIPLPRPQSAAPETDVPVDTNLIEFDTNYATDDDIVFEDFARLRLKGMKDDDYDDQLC

Legend:
[1] = target: luminescent PKR1 (PKR1-rLuc) (UniProt Q8TCW9); assay: FRET or BRET; BRET in CHO cells stably expressing rGFP-β-arrestin-2, transiently transfected with a constant amount of receptor-rLuc and increasing amounts of MRAP2 vector; 5 μM coelenterazine in PBS; without or with PK2
[2] = target: luminescent PKR2 (PKR2-rLuc) (UniProt Q8NFJ6); assay: as above
[3] = target: T1, hMRAP2-Glutathione S-Transferase (hMRAP2-GST) (human) (UniProt Q96G30); assay: pull-down; GST fusion protein held on glutathione-Sepharose beads, buffer A (PBS, 1% Nonidet P 40, 1 mM EDTA), incubated with purified His-tagged protein from E. coli; eluted with GSH, Western blot; both purified
T1 sequence: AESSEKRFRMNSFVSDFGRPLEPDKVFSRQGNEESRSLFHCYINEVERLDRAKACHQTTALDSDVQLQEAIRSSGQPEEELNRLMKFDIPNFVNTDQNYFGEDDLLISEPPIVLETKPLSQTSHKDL

[4] = target: T2, CT-MRAP2 (C-terminal domain of MRAP2, residues 78-204) (human) (UniProt Q96G30); assay: co-IP; total proteins from E. coli co-expressing CT-MRAP2 FLAG and His-tagged β-arrestin-2 or p44; FLAG bind resin, native conditions; blots with anti-FLAG and anti-His
T2 sequence: T1 sequence

WT PKR2 = WT PKR2 (UniProt Q8NFJ6); assay: cross-linking; CHO cells co-expressing MRAP2 and WT PKR2 or PKR2-ΔC52 incubated with dithiobis(succinimidyl propionate) (2 mM); membrane proteins on SDS-PAGE, blot with anti-PKR2
[5] = target: β-arrestin-2-GST fusion protein (UniProt P32121); assay: pull-down; GST fusion protein held on glutathione-Sepharose beads, buffer A (PBS, 1% Nonidet P 40, 1 mM EDTA), incubated with purified His-tagged protein from E. coli; eluted with GSH, Western blot; both purified

Question: What does the source list for “fluorescent β-arrestin-2 (GFP-β-arrestin-2) (from UniProt P32121 1-409)”?
Answer: binding [1]: binds; binding [2]: binds

Question: What does the source list for “β-arrestin-2 with His TAG (from UniProt P32121 1-409)”?
Answer: binding [3]: binds; binding [4]: binds

B1: Melanocortin receptor accessory protein 2 (MRAP2) (protein, UniProt Q96G30 1-205)
chain: MSAQRLISNRTSQQSASNSDYTWEYEYYEIGPVSFEGLKAHKYSIVIGFWVGLAVFVIFMFFVLTLLTKTGAPHQDNAESSEKRFRMNSFVSDFGRPLEPDKVFSRQGNEESRSLFHCYINEVERLDRAKACHQTTALDSDVQLQEAIRSSGQPEEELNRLMKFDIPNFVNTDQNYFGEDDLLISEPPIVLETKPLSQTSHKDLD
Question: With B1 as the molecule, how does the binding (WT PKR2) read?
Answer: The binding was “binds”.

B2: CT-MRAP2 (C-terminal domain of MRAP2, residues 78-204) (domain or fragment, UniProt Q96G30 78-204)
chain: T1 sequence
Question: For B2, which binding [5] is on record?
Answer: The binding was “binds”.

B3: 131CT-MRAP2 deletion mutant (domain or fragment, UniProt Q96G30 78-131)
chain: AESSEKRFRMNSFVSDFGRPLEPDKVFSRQGNEESRSLFHCYINEVERLDRAKA
Question: For B3, which binding [5] is on record?
Answer: The binding was “binds”.
